Laboratory results: PubChem BioAssay (EPA / NIEHS)
The shares of active, inactive and inconclusive entries below differ from those in the screen. Potencies of inconclusive entries are doubtful fits and often do not repeat. The source made the active and inactive calls. Rule for the calls: active = hit-call score of the fitted dose curve at least 0.9, where 1 is the maximum; inconclusive = response in the unintended direction; inactive = score below 0.9.

Sequences of proteins named here, by UniProt entry; tags and fusion partners are left off.
UniProt P10276, whole entry, looked up: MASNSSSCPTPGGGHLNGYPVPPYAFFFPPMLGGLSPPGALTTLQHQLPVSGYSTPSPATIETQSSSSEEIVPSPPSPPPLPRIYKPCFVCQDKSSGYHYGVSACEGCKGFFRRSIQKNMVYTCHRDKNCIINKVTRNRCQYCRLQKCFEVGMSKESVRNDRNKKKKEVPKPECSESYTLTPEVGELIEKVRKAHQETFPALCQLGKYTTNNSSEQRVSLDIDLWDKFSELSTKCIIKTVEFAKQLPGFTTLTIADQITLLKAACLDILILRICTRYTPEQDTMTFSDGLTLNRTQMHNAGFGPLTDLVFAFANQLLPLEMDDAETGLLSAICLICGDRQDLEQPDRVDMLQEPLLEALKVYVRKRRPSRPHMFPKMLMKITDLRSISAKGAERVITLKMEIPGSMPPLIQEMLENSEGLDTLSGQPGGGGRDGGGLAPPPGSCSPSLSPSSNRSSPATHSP

biological target: Retinoic acid receptor alpha (Homo sapiens) (UniProt P10276); assay: ATG_RARa_TRANS: Attagene TRANS-FACTORIAL HepG2 Assay for human Retinoic Acid Receptor alpha (RARa) (AID 2283005);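 for AC50: potency for increased reporter signal meaning RARa activation over DMSO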
Procedure, shortened: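 Reporter transcripts, measured by RT-PCR with fluorescent labeling and capillary electrophoresis after 24 h dosing, reflect activity of an exogenous human RARa–GAL4 fusion in transiently transfected HepG2. Fitted for increase relative to DMSO.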

SMILES	AC50	outcome
CCCCCCCCCCCCCO	inconclusive: 165 µM	
O=CCc1ccccc1	inconclusive: 60.8 µM	
C1CCOC1		inactive
C=CC(C)(O)CCC=C(C)C (configuration not stated)	inconclusive: 185 µM	
CCOC(C=C(C)CCC=C(C)C)OCC	inconclusive: 100 µM	
CC(C)(C)C1CCC(O)CC1 (configuration not stated)	inconclusive: 100 µM	
NC(=O)C(F)(F)C(F)(F)C(F)(F)C(F)(F)C(F)(F)C(F)(F)C(F)(F)F		inactive
COC(OC)(C(=O)c1ccccc1)c1ccccc1	inconclusive: 100 µM	
CCCC(C)=O		inactive
Brc1ccccn1	inconclusive: 162 µM	
CC(=O)O[C@@H]1C[C@@H]2CC[C@@]1(C)C2(C)C		inactive
FC(F)(F)COCC(F)(F)F		inactive
O=C1CCC(N2C(=O)c3ccccc3C2=O)C(=O)N1 (configuration not stated)	inconclusive: 100 µM	
C=C(C)OC(C)=O	inconclusive: 100 µM	
CCCC(=O)OCCC(C)CCC=C(C)C (configuration not stated)	inconclusive: 100 µM	
CCCCCCCCCCCCCC(=O)OCC(O)CO (configuration not stated)		inactive
Oc1ccccc1	inconclusive: 13.1 µM	inactive
C=C(C)C(=O)OCCOCCOCCOC(=O)C(=C)C	inconclusive: 100 µM	
CCC(=O)OCc1ccc(OC)cc1	inconclusive: 11 µM	
C=CC(=C)CCCC(C)(C)OC(C)=O	inconclusive: 5.6 µM	
Brc1nc2ccccc2s1	inconclusive: 138 µM	

Another view of six compounds above:

| SMILES | AC50 | outcome |
| --- | --- | --- |
| CC(=O)O[C@@H]1C[C@@H]2CC[C@@]1(C)C2(C)C |  | inactive |
| FC(F)(F)COCC(F)(F)F |  | inactive |
| O=C1CCC(N2C(=O)c3ccccc3C2=O)C(=O)N1 (configuration not stated) | inconclusive: 100 µM |  |
| C=C(C)OC(C)=O | inconclusive: 100 µM |  |
| CCCC(=O)OCCC(C)CCC=C(C)C (configuration not stated) | inconclusive: 100 µM |  |
| CCCCCCCCCCCCCC(=O)OCC(O)CO (configuration not stated) |  | inactive |
